Test results: PMC3653798

Biological target: Drosophila Van Gogh/Strabismus (Vang), Myc-tagged (Drosophila melanogaster)
Assay: co-IP; Drosophila tagged proteins co-expressed in HEK293T cells; lysis in 150 mM NaCl, 50 mM Tris/HCl pH 7.5, 10% glycerol, 0.4% Nonidet P-40; IP with anti-FLAG conjugated to Dynabeads M-270, 1 h at 4°C (reverse IP by the partner's tag); Western blot

binding: binds
B1: Drosophila APP Like (APPL), FLAG-tagged (protein, UniProt P14599 28-887)
chain: ASPRWEPQIAVLCEAGQIYQPQYLSEEGRWVTDLSKKTTGPTCLRDKMDLLDYCKKAYPNRDITNIVESSHYQKIGGWCRQGALNAAKCKGSHRWIKPFRCLGPFQSDALLVPEGCLFDHIHNASRCWPFVRWNQTGAAACQERGMQMRSFAMLLPCGISVFSGVEFVCCPKHFKTDEIHVKKTDLPVMPAAQINSANDELVMNDEDDSNDSNYSKDANEDDLDDEDDLMGDDEEDDMVADEAATAGGSPNTGSSGDSNSGSLDDINAEYDSGEEGDNYEEDGAGSESEAEVEASWDQSGGAKVVSLKSDSSSPSSAPVAPAPEKAPVKSESVTSTPQLSASAAAFVAANSGNSGTGAGAPPSTAQPTSDPYFTHFDPHYEHQSYKVSQKRLEESHREKVTRVMKDWSDLEEKYQDMRLADPKAAQSFKQRMTARFQTSVQALEEEGNAEKHQLAAMHQQRVLAHINQRKREAMTCYTQALTEQPPNAHHVEKCLQKLLRALHKDRAHALAHYRHLLNSGGPGGLEAAASERPRTLERLIDIDRAVNQSMTMLKRYPELSAKIAQLMNDYILALRSKDDIPGSSLGMSEEAEAGILDKYRVEIERKVAEKERLRLAEKQRKEQRAAEREKLREEKLRLEAKKVDDMLKSQVAEQQSQPTQSSTQSQAQQQQQEKSLPGKELGPDAALVTAANPNLETTKSEKDLSDTEYGEATVSSTKVQTVLPTVDDDAVQRAVEDVAAAVAHQEAEPQVQHFMTHDLGHRESSFSLRREFAQHAHAAKEGRNVYFTLSFAGIALMAAVFVGVAVAKWRTSRSPHAQGFIEVDQNVTTHHPIVREEKIVPNMQINGYENPTYKYFEVKE

Results are given in words; binding and its absence hold for the method and conditions named. Binding seen in cells or lysates may run through a third protein. A result given as binding can be weak or reduced; the word gives no strength. Sequences can lack the tags named with a protein.
